Counter-ions that a name gives are not always drawn.
System: SKOV3 ovarian cancer cells
Experiment: Therapeutic index calculated using phototoxicity IC90 vs dark toxicity IC10
Format: cell-based, Human

| Compound | Therapeutic Index |
| --- | --- |
| C=Cc1c(C)c2cc3nc(c(C)c4[nH]c(cc5nc(cc1[nH]2)C(C)=C5CC)c(C)c4C(=O)O)[C@@H](CCC(=O)O)[C@@H]3C [Chlorin e4 disodium, Chlorin e4 Disodium Salt, reference compound] | 1.89 |
| CCC1=C(C)c2cc3[nH]c(cc4nc(c(C)c5[nH]c(cc1n2)c(C)c5C(=O)OC)[C@@H](CCC(=O)OC)[C@@H]4C)c(C)c3C(C)OCCCS[C@@H]1O[C@H](CO)[C@@H](O)[C@H](O)[C@H]1O (stereo partly drawn) [Compound 1, methyl (7S,8S)-18-ethyl-7-(3-methoxy-3-oxopropyl)-2,5,8,12,17-pentamethyl-13-(1-(3-(((2S,3R,4S,5S,6R)-3,4,5-trihydroxy-6-(hydroxymethyl)tetrahydro-2H-pyran-2-yl)thio)propoxy)ethyl)-7H,8H-porphyrin-3-carboxylate] | 144.00 |
| CCC1=C(C)c2cc3[nH]c(cc4nc(c(C)c5[nH]c(cc1n2)c(C)c5C(=O)OC)[C@@H](CCC(=O)OC)[C@@H]4C)c(C)c3COC(=O)NCCCOCCC[P+](c1ccccc1)(c1ccccc1)c1ccccc1 [Compound 4, chlorin e4 dimethyl ester 13-(N-(3-(3-triphenylphosphoniumpropoxy)propyl)chloride)carbamate] | 1,617.08 |
| CCC1=C(C)c2cc3[nH]c(cc4nc(c(C)c5[nH]c(cc1n2)c(C)c5C(=O)OC)[C@@H](CCC(=O)OC)[C@@H]4C)c(C)c3COC(=O)NCCC[P+](c1ccccc1)(c1ccccc1)c1ccccc1 [Compound 5, chlorin e4 dimethyl ester 13-(N-(3-triphenylphosphoniumpropyl)bromide)carbamate] | 1,050.34 |
| CCC1=C(C)c2cc3[nH]c(cc4nc(c(C)c5[nH]c(cc1n2)c(C)c5C(=O)OC)[C@@H](CCC(=O)OC)[C@@H]4C)c(C)c3COC(=O)NCC[P+](c1ccccc1)(c1ccccc1)c1ccccc1 [Compound 6, chlorin e4 dimethyl ester 13-(N-(2-triphenylphosphoniumethyl)bromide)carbamate] | 1,267.22 |
| C=Cc1c(C)c2cc3nc(c(CC(=O)N[C@@H](CC(=O)O)C(=O)O)c4[nH]c(cc5nc(cc1[nH]2)C(C)=C5CC)c(C)c4C(=O)O)[C@@H](CCC(=O)O)[C@@H]3C [Talaporfin sodium, reference compound] | 0.49 |
| chlorin e4 13-hydroxymethyl dimethyl ester | 131.87 |
| chlorin e4 dimethyl ester 13-(6-(triphenylphosphonium bromide)hexyl)carbamate [Compound 3] | 204.39 |

Source: patent publication US20250115633A1, “PHOTODYNAMIC THERAPY AND DIAGNOSIS” (RMW CHO Group Limited, priority 2021, published 2025)
